# PubChem BioAssay AID493014 (National Center for Advancing Translational Sciences (NCATS), 2011)
# This is one part of the list. Shown are side measurements of this screen, not its main read-out; they come without a call. Compounds called inactive in the main read-out are mostly missing here. The note in brackets gives the kind of curve behind each potency; many fits are weak.
# Test: qHTS Assay to Find Inhibitors of Chronic Active B-Cell Receptor Signaling
# Conditions: ABC-DLBCL IkBa-CBG/CBR reporter, luminescence ratio (green luciferase fused to IkBa over red control in TMD8 lymphoma cells), 4 h
# Method in brief: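 TMD8 ABC-DLBCL cells carrying doxycycline-inducible green luciferase fused to IkappaBalpha plus unfused red luciferase were exposed to compounds (up to 46 uM) for 4 hrs at 37C. Activity came from the overlap-corrected green/red luminescence ratio.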
# [1] = measured here: CBR red luminescence, cell number
# [2] = measured here: IkBa-CBG green luminescence
SMILES,AC50 [1],AC50 [2]
Cn1c(NCc2c(O)ccc3ccccc23)nc2ccccc21,"32.6 µM [falling, partial curve, poor fit]",
CCCn1c2ccccc2c2cnn(CC(=O)NCCN(CC)CC)c(=O)c21,"35.5 µM [falling, single point]",
COc1cccc(NC(=O)CSc2nc3ccccc3c(=O)n2C)c1,"6.31 µM [falling, partial curve, poor fit]",
CCn1c(SCC(=O)N2CCC(C)CC2)nc2c(c1=O)SC(C)C2 (configuration not stated),"7.94 µM [falling, partial curve, poor fit]",
Cc1ccc(Cl)cc1NC(=O)CCn1cccc1,"31.6 µM [rising, partial curve, poor fit]",
COc1cc(-c2noc(C)c2/C=C/c2ccc(N)cc2)cc(OC)c1OC,"0.708 µM [rising, full curve, poor fit]","1 µM [falling, full curve]"
Cc1nn(CC(=O)NCCCN2CCCC2=O)c(C)c1[N+](=O)[O-],"29.1 µM [rising, single point]",
c1ccc(-c2noc(-c3ccno3)n2)nc1,"11.2 µM [rising, single point]",
NC(=O)C1CCCN(S(=O)(=O)c2ccccc2)C1 (configuration not stated),"29.1 µM [rising, single point]",
Cc1ccc(C(=O)N2CCN(c3ccc(NC(=O)COc4ccccc4C)cc3)CC2)cc1,"25.1 µM [falling, single point]",
O=C(CC1CCCCC1)NCCCN1CCOCC1,"3.98 µM [falling, single point]",
O=C(c1ccc(CSc2nc3ccncc3[nH]2)cc1)N1CCN(c2cccc(Cl)c2)CC1,"18.4 µM [falling, single point]",
CC(C)C(=O)Nc1nc2cc3c(cc2s1)OCCO3,"15.8 µM [falling, single point]",
O=C(NC(=S)NNC(=O)c1cc2ccccc2cc1O)c1ccco1,"7.94 µM [falling, partial curve]",
O=C1Nc2cc(C(=O)N3CCOCC3)ccc2S/C1=C\c1ccccc1,"35.5 µM [falling, single point]",
Cc1ccc(-n2ncc3c(NCc4cccnc4)ncnc32)c(C)c1,"7.31 µM [falling, partial curve]",
CC(=O)N1c2ccc(S(=O)(=O)NCC3CCC(C(=O)NCc4ccco4)CC3)cc2CC1C (configuration not stated),"0.282 µM [falling, full curve, poor fit]",
Cc1noc(C(=O)N(C)c2ccccc2)c1Cl,"14.1 µM [rising, partial curve, poor fit]",
c1ccc(-c2noc(CSc3nnnn3-c3ccccc3)n2)cc1,"0.126 µM [rising, full curve, poor fit]",
CC(=O)C(Cl)C(=O)Nc1ccccc1 (configuration not stated),"10 µM [falling, partial curve]",
COC(=O)C(=Cc1ccc(-c2ccsc2C(=O)OC)o1)C(=O)OC,"7.94 µM [falling, partial curve]",
CN(C)C1NC(=O)c2cc(-c3ccccc3)sc2N1 (configuration not stated),"35.5 µM [falling, single point]",

# Two neighbouring entries out of the list so far, for reference:
SMILES,AC50 [1],AC50 [2]
NC(=O)C1CCCN(S(=O)(=O)c2ccccc2)C1 (configuration not stated),"29.1 µM [rising, single point]",
Cc1ccc(C(=O)N2CCN(c3ccc(NC(=O)COc4ccccc4C)cc3)CC2)cc1,"25.1 µM [falling, single point]",

# (list continues)

SMILES,AC50 [1],AC50 [2]
Cc1ccc(C(=O)N/C(=C\c2ccccc2)C(=O)NCc2ccncc2)cc1,"3.98 µM [rising, partial curve, poor fit]",
CC(C(=O)O)c1ccc(N2Cc3ccccc3C2=O)cc1 (configuration not stated),"17.8 µM [falling, partial curve, poor fit]",
Cc1ccc(C(C(=O)NC2CCCCC2)N(C(=O)c2csnn2)C2CCCC2)o1 (configuration not stated),"0.731 µM [falling, partial curve, poor fit]",
CC1(C)CC(=O)C2=C(C1)N1C(=C(C#N)C2c2ccc(Cl)cc2)N=C(N)c2ccccc21 (configuration not stated),"16.4 µM [falling, single point]",
O=C(NCCC1=CCCCC1)C1CCCN(S(=O)(=O)c2cccc3cccnc23)C1 (configuration not stated),,"12.6 µM [falling, partial curve, poor fit]"
O=C(Cc1cccs1)Nc1nncs1,"18.4 µM [falling, partial curve, poor fit]",
c1cc2c(cc1C1=Nn3c(nnc3C3CCCCC3)SC1)OCO2,"2.91 µM [falling, partial curve]",
O=C(CCC(=O)N(CC(=O)NC1CCCCC1)c1ccc(F)cc1)Nc1nccs1,"7.08 µM [falling, full curve]",
COc1ccc(NC(=O)NC(C(F)(F)F)C(F)(F)F)cc1,"29.1 µM [rising, single point]",
CCOc1ccc(NC(=S)NC(=O)C2CCCC2)cc1,"35.5 µM [rising, single point]",
CC(=C\c1ccccc1)/C=C1/SC(=S)N(CCC(=O)O)C1=O,"0.316 µM [falling, full curve]",
S=C(Nc1ccc(Cl)cc1Cl)Nn1cnnc1,"1.84 µM [rising, full curve, poor fit]",
S=c1nc2ccccc2c2nc(-c3ccccc3Br)[nH]n12,"3.55 µM [rising, full curve]","0.631 µM [falling, full curve, poor fit]"
O=C(NCCC1=CCCCC1)C(=O)NCC(c1ccco1)N1CCN(c2ccccc2F)CC1 (configuration not stated),"0.517 µM [rising, full curve, poor fit]",
O=c1oc(-c2ccccc2Br)nc2ccccc12,"1.12 µM [rising, partial curve, poor fit]",
CN(C)c1ccc(C(=O)NCC(c2cccs2)N2CCOCC2)cc1[N+](=O)[O-] (configuration not stated),"23.1 µM [rising, partial curve]",
COC(=O)[C@H](CC(C)C)NS(=O)(=O)N(Cc1ccccc1)[C@@H](CC(C)C)C(=O)OC,"29.1 µM [falling, single point]",
O=S(=O)(Nc1ccc2c(c1)nc1n2CCN(Cc2ccccc2)C1)c1ccccc1,"6.51 µM [falling, partial curve]",
CC(=O)N1CCC(C(=O)Nc2ccc3c(c2)CCC3)CC1,"14.1 µM [rising, single point]",
CCCOc1ccc([C@@H]2C3CN(C(=O)OCC)CC=C3C(C#N)=C(N)C2(C#N)C#N)cc1OC (some centres not stated),"16.4 µM [falling, partial curve, poor fit]",
COc1ccc(N(CC(=O)NCCSc2ccccn2)S(C)(=O)=O)cc1Cl,"11.2 µM [rising, partial curve, poor fit]",
Cc1ccccc1C(=O)Nc1ccc2c(c1)nc(CCNC(=O)c1ccco1)n2C,"17.8 µM [falling, partial curve, poor fit]",

SMILES,AC50 [1],AC50 [2]
CCOc1ccc(NCCC(=O)c2ccc3c(c2)OCO3)cc1,"3.26 µM [falling, single point]",
COc1ccc(CC(=O)OCC(=O)NC(=O)NC2CCCC2)cc1,"29.1 µM [rising, single point]",
COc1c(C)cc(Br)cc1C(=O)NC(=S)NCc1ccco1,"3.98 µM [rising, partial curve, poor fit]",
COc1ccc(/C=C/C(=O)NCc2cnn(C)c2C)cc1COc1ccc(Br)cc1,"25.1 µM [falling, single point]",
COc1ccc(OC)c(CN2CCC(CO)(CCOc3ccccc3)CC2)c1,"35.5 µM [rising, single point]",
O=S(=O)(/N=C(/Nc1ccccc1F)c1ccccc1)c1ccccc1,"1.3 µM [falling, full curve, poor fit]",
CC(CN1CCCCC1)OC(=O)c1ccc(Cl)cc1Cl (configuration not stated),"3.26 µM [rising, single point]",
COc1ccc(C2=Nn3c(nnc3-c3cc(C)[nH]n3)SC2)cc1,,"12.6 µM [falling, single point]"
CCN(CC)CCOC(=O)c1ccc(NC(=O)CCCN2C(=O)/C(=C/c3cccs3)SC2=S)cc1,"3.98 µM [falling, full curve]",
CC(=O)Nc1ccc2nc(-c3cccs3)[nH]c2c1,"12.6 µM [falling, partial curve, poor fit]",
COc1cc(CNc2ccccc2SC)cc(OC)c1OC,"0.259 µM [rising, full curve, poor fit]",
COc1cccc(NC(=O)c2cc(=O)c3ccccc3o2)c1,"35.5 µM [falling, single point]",
O=C(NCCc1cccc(Cl)c1)c1cccc([N+](=O)[O-])c1,"29.1 µM [falling, single point]","32.6 µM [rising, partial curve, poor fit]"
Cc1cc(C)c(S(=O)(=O)c2ccccc2)c(OC(=O)c2ccc(Cl)cc2Cl)n1,"20.6 µM [rising, partial curve, poor fit]",
CC1=C(C)CC(C(=O)NC2CCN(C(C)C)CC2)C(C(=O)O)C1 (configuration not stated),"3.98 µM [falling, partial curve, poor fit]",
O=C(CCSc1nc(-c2ccco2)cc(C(F)(F)F)n1)NCCN1CCOCC1,"20 µM [falling, partial curve, poor fit]",
COC(=O)c1ccccc1NC(=O)C1CCN(c2ncnc3c2nc2n3CCCCC2)CC1,"35.5 µM [falling, single point]",
COc1ccc(Br)c(C(=O)Nc2cccc(Cl)c2Cl)c1,"11.6 µM [rising, partial curve, poor fit]",
O=C(NC1CC1)c1cc(-c2ccc(Br)cc2)nc2ccccc12,"6.51 µM [rising, partial curve, poor fit]",
Cc1ccc(C(=O)N2CCCCC2)cc1NC1=C(Cl)C(=O)N(Cc2ccccc2)C1=O,"29.1 µM [falling, single point]",
